This passage reports TEAD-luciferase reporter activity results from the supplement of paper PMC10735217.

The test relates to HEK293A TEAD-LUC reporter. Description: TEAD-luciferase reporter activity (YAP activation), robust Z score vs plate; higher = stronger YAP/TEAD activation. The conditions noted are these: 24 h. (In general: In a reporter assay the amount or activity of a reporter protein is the signal.)

Structures can show the parent of a compound that is named as a salt. Some of the results follow. Repeats in this data set agree poorly, so a single value says little.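 The human kidney-derived cells carry a stably integrated construct of eight TEAD-binding elements driving luciferase, read by luminescence in a drug-repurposing library screen. A compound counts as a hit when its signal is more than five robust Z scores above the plate mean.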

Take `COc1ccc2c3c1O[C@H]1[C@@H](O)C=C[C@H]4[C@@H](C2)NCC[C@@]341`: the TEAD-luciferase reporter activity by setting is: (compound concentration: 200 nM) inactive: -0.413; (compound concentration: 2 uM) inactive: -0.541; (compound concentration: 10 uM) inactive: 0.306.
On to `C#CCO[C@H]1CN2CCC1CC2` [Talsaclidine fumarate], for which the TEAD-luciferase reporter activity was inactive: 0.374 (compound concentration: 200 nM), inactive: -0.757 (compound concentration: 2 uM) and inactive: -0.295 (compound concentration: 10 uM).
`CCCC1c2cccc3c2C(Cc2ccc(O)c(O)c2-3)N1CC` (configuration not stated): the TEAD-luciferase reporter activity reads like this: (compound concentration: 200 nM) inactive: 1.1; (compound concentration: 2 uM) inactive: -1.38; (compound concentration: 10 uM) inactive: -1.
With `CCc1cc2c(ccc3cnn(C[C@H](C)N)c32)o1`, the TEAD-luciferase reporter activity by setting is: (compound concentration: 200 nM) inactive: 0.745; (compound concentration: 2 uM) inactive: -0.732; (compound concentration: 10 uM) inactive: 0.207.
For the compound `Clc1ccc2c(C3=CCNCC3)c[nH]c2c1`, the TEAD-luciferase reporter activity is, setting by setting: (compound concentration: 200 nM) inactive: 0.561; (compound concentration: 2 uM) inactive: -1.03; (compound concentration: 10 uM) inactive: -2.04.
Take `CC(=O)[C@]1(O)Cc2c(O)c3c(c(O)c2[C@@H](O[C@H]2C[C@H](N4CC4)[C@H](OS(C)(=O)=O)[C@H](C)O2)C1)C(=O)c1ccccc1C3=O`: the TEAD-luciferase reporter activity was inactive: -0.0928 (compound concentration: 200 nM), inactive: -0.975 (compound concentration: 2 uM) and inactive: -1.19 (compound concentration: 10 uM).
For `COC(=O)C(N)CCCN/C(N)=N\[N+](=O)[O-]` (configuration not stated), in that order: inactive: -1.73, inactive: -0.634 and inactive: 1.19.
With `C#C[C@]1(O)CC[C@H]2[C@@H]3CC[C@H]4Cc5nc6nc7ccccc7n6cc5C[C@]4(C)[C@H]3CC[C@@]21C`, the TEAD-luciferase reporter activity is inactive: 0.997 (compound concentration: 200 nM), inactive: 2 (compound concentration: 2 uM) and inactive: 4.27 (compound concentration: 10 uM).
As to `CC(=O)OC(Cc1ccccc1)(c1ccccc1)C(C)CN1CCCC1` (configuration not stated), the TEAD-luciferase reporter activity reads like this: (compound concentration: 200 nM) inactive: -1.32; (compound concentration: 2 uM) inactive: -0.455; (compound concentration: 10 uM) inactive: -1.09.
`CC(=O)C1CCC2C3CC[C@@H]4C[C@H](O)CC[C@]4(C)C3C(=O)C[C@]12C` (some centres not stated) [alfaxalone, Pharmos]: the TEAD-luciferase reporter activity (compound concentration: 200 nM) is inactive: -0.798, the TEAD-luciferase reporter activity (compound concentration: 2 uM) was inactive: 1.33 and the TEAD-luciferase reporter activity (compound concentration: 10 uM) is inactive: 2.98.
Take `Cc1cccc(-c2ccc3c(c2)c(C(=O)C(=O)O)cn3Cc2ccc(C(C)(C)C)cc2)c1`: the TEAD-luciferase reporter activity is, setting by setting: (compound concentration: 200 nM) inactive: -0.84; (compound concentration: 2 uM) inactive: -0.909; (compound concentration: 10 uM) inactive: -1.37.
In the case of `O=C(O)c1ccc2c(c1)C(SCCN1CCC(Cc3ccccc3)CC1)c1ccccc1CO2` (configuration not stated), the TEAD-luciferase reporter activity is inactive: -0.599 (compound concentration: 200 nM), inactive: 0.266 (compound concentration: 2 uM) and inactive: -0.523 (compound concentration: 10 uM).
As to `CC(=O)OCCN(CCOC(C)=O)C(=O)[C@@H]1CC2c3cccc4[nH]cc(c34)C[C@H]2N(C)C1` (some centres not stated), the TEAD-luciferase reporter activity reads like this: (compound concentration: 200 nM) inactive: -0.201; (compound concentration: 2 uM) inactive: 2.25; (compound concentration: 10 uM) inactive: 0.314.
For `Cc1nnc2ccc(-c3cccc(C(F)(F)F)c3)nn12`, in that order: inactive: -0.288, inactive: 0.196 and inactive: 3.94.
On the same counts, the results for `CCOC(=O)C1(c2ccccc2)CCN(CCc2ccc(NC(C)=O)cc2)CC1` are inactive: -0.227, inactive: 1.38 and inactive: 1.29.
For the compound `O=[N+]([O-])c1ccccc1O`, the TEAD-luciferase reporter activity runs as follows: (compound concentration: 200 nM) inactive: -0.82; (compound concentration: 2 uM) inactive: -0.949; (compound concentration: 10 uM) inactive: 0.0235.
With `c1cncc(C2CCCCN2)c1` (configuration not stated) [Anabasine hydrochloride], the TEAD-luciferase reporter activity reads like this: (compound concentration: 200 nM) inactive: -0.858; (compound concentration: 2 uM) inactive: -1.28; (compound concentration: 10 uM) inactive: 1.61.
As to `C[N+](C)(C)CCOC(=O)C(O)(c1ccccc1)C1CCCC1` (configuration not stated), the TEAD-luciferase reporter activity was inactive: 0.979 (compound concentration: 200 nM), inactive: -0.0086 (compound concentration: 2 uM) and inactive: -1.53 (compound concentration: 10 uM).
Regarding `O=C(C1CCCN1C(=O)C1CCCC1)N1CCC(N2Cc3ccccc3C2=O)CC1` (configuration not stated), the TEAD-luciferase reporter activity is inactive: -0.0809 (compound concentration: 200 nM) and inactive: 0.442 (compound concentration: 10 uM).
With `Oc1ccc(C2=CCC[C@H](CN3CC=C(c4ccccc4)CC3)C2)cc1`, the TEAD-luciferase reporter activity reads like this: (compound concentration: 200 nM) inactive: -0.94; (compound concentration: 2 uM) inactive: -0.649; (compound concentration: 10 uM) inactive: 0.693.
With `OCCN(CCO)CCO`, for the setting “compound concentration: 10 uM”, the TEAD-luciferase reporter activity is inactive: 0.0447.
As for `OCCN(CCO)CCO` [Triethanolamine], the TEAD-luciferase reporter activity (compound concentration: 2 uM) was inactive: 0.502.
With `CCC(C)(C)C(=O)Nc1cc(CN2CCOCC2)c(C)cn1` [CB2 agonists, Adolor], the TEAD-luciferase reporter activity is, setting by setting: (compound concentration: 200 nM) inactive: -1.16; (compound concentration: 2 uM) inactive: -1.65; (compound concentration: 10 uM) inactive: 0.146.
On to `CCOC(=O)[C@H](CCSC)NC(=O)[C@H](Cc1cccc(N(CCCl)CCCl)c1)NC(=O)[C@@H](N)Cc1ccc(F)cc1` [Ambamustine hydrochloride], for which the TEAD-luciferase reporter activity (compound concentration: 200 nM) was inactive: -1.46, the TEAD-luciferase reporter activity (compound concentration: 2 uM) is inactive: -0.717 and the TEAD-luciferase reporter activity (compound concentration: 10 uM) is inactive: 0.203.
In the case of `Cc1cc2c(cc1F)nc(O)n2C1CCN(C2CCOCC2)CC1`, the TEAD-luciferase reporter activity runs as follows: (compound concentration: 200 nM) inactive: 0.438; (compound concentration: 2 uM) inactive: -1.08; (compound concentration: 10 uM) inactive: -2.1.
On the same counts, the results for `F/C(COc1ccc2c(c1)[nH]c1ccccc12)=C1/CN2CCC1CC2` are inactive: -1.51, inactive: 0.126 and inactive: 0.964.
On to `CCC1(c2ccccc2)C(=O)NC(=O)NC1=O` [Barbexaclone], for which the TEAD-luciferase reporter activity was inactive: -1.88 (compound concentration: 200 nM) and active: 6.25 (compound concentration: 10 uM).
With `CCCCCCCCC(=O)NCc1ccc(O)c(OC)c1`, the TEAD-luciferase reporter activity reads like this: (compound concentration: 200 nM) inactive: 1.42; (compound concentration: 2 uM) inactive: 1.53; (compound concentration: 10 uM) inactive: 2.13.
For `CC(C)OC(=O)[C@H](C)N[P@](=S)(OC[C@H]1O[C@@H](n2ccc(=O)[nH]c2=O)[C@](C)(O)[C@@H]1O)Oc1ccccc1`, in that order: inactive: -0.311, inactive: 0.214 and inactive: 0.607.
In the case of `CCCCCCCC/C=C\CCCCCCCCOP(O)(O)=S`, the TEAD-luciferase reporter activity was inactive: 0.439 (compound concentration: 200 nM), inactive: 0.00994 (compound concentration: 2 uM) and active: 7.37 (compound concentration: 10 uM).
On to `CCCCCCCCCCCCC(=O)O[C@H]1CC[C@H]2[C@@H]3CCC4=CC(=O)CCC4(C)[C@H]3CCC12C` (some centres not stated), for which the TEAD-luciferase reporter activity by setting is: (compound concentration: 200 nM) inactive: 0.293; (compound concentration: 2 uM) inactive: -0.943; (compound concentration: 10 uM) inactive: 0.505.
As for `C[Se]C[C@H](N)C(=O)O` [Se-Methylselenocysteine], the TEAD-luciferase reporter activity is, setting by setting: (compound concentration: 200 nM) inactive: -0.424; (compound concentration: 10 uM) inactive: -0.758.
Consider `OC1=Nc2ccc(Cl)cc2C(c2ccccc2Cl)=NC1` [delorazepam], for which the TEAD-luciferase reporter activity is, setting by setting: (compound concentration: 200 nM) inactive: -0.84; (compound concentration: 2 uM) inactive: -0.731; (compound concentration: 10 uM) inactive: 0.483.
With `COc1cc(CCN)cc(OC)c1OC`, the TEAD-luciferase reporter activity by setting is: (compound concentration: 200 nM) inactive: -1.56; (compound concentration: 2 uM) inactive: 0.024; (compound concentration: 10 uM) inactive: 2.73.
Regarding `C[C@@H]([C@H](O)c1ccccc1)N(C)C`, the TEAD-luciferase reporter activity (compound concentration: 200 nM) is inactive: -0.112, the TEAD-luciferase reporter activity (compound concentration: 2 uM) is inactive: -1.1 and the TEAD-luciferase reporter activity (compound concentration: 10 uM) is inactive: -0.0864.
In the case of `c1ccc(-c2ccc(OC3CN4CCC3CC4)nn2)cc1` (configuration not stated), the TEAD-luciferase reporter activity runs as follows: (compound concentration: 200 nM) inactive: -0.476; (compound concentration: 2 uM) active: 5.81; (compound concentration: 10 uM) inactive: 1.71.
`C=C(C)[C@H]1CCC(C)=C[C@@H]1c1c(O)cc(CCC)cc1O` [Cannabidivarin]: the TEAD-luciferase reporter activity runs as follows: (compound concentration: 200 nM) inactive: -0.198; (compound concentration: 2 uM) inactive: -0.707; (compound concentration: 10 uM) inactive: -0.598.
For `N=C(N)NN` [Pimagedine], in that order: inactive: 1.01, inactive: 0.0226 and inactive: 0.443.
